Assay results: patent US20100298217A1 (published 2010)
Results are given in words; binding and its absence hold for the method and conditions named. Some binding calls cover weakened binding; strength is not graded here.

Tests used:
[1] = target: T1, mouse CSF-1R C432S/C439S mutant expressed on M-/- macrophages (M-/-.C432/439SCSF-1R cells) (mouse) (UniProt P09581); experiment: cell surface CSF-1 24 h after removal of human CSF-1, FIG. 13
T1 sequence: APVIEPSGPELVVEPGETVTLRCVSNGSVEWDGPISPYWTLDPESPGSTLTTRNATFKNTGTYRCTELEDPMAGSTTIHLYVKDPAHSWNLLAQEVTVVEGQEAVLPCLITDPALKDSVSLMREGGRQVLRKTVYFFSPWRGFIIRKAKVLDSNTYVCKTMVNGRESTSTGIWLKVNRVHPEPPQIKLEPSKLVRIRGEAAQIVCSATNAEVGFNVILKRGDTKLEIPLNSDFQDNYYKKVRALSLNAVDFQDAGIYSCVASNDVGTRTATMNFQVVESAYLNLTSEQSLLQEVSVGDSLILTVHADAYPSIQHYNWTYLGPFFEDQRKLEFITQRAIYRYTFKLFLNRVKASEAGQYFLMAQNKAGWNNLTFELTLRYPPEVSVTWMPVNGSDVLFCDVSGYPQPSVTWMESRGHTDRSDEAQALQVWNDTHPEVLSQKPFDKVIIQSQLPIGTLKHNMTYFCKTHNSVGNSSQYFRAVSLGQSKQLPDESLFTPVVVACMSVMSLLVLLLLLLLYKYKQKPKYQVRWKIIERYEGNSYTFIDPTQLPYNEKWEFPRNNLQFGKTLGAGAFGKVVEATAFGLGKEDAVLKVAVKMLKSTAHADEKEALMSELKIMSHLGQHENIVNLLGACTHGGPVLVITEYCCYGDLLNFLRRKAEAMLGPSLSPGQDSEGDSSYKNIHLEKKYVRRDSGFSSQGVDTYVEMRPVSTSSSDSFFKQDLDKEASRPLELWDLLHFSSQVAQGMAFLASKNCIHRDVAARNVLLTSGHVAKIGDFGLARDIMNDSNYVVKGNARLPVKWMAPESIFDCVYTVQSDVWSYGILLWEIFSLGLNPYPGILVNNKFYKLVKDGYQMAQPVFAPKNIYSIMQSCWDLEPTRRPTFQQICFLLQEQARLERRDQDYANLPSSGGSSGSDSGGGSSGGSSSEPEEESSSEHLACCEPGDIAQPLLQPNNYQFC

[2] = target: T1, mouse CSF-1R C432S/C439S mutant expressed on M-/- macrophages (M-/-.C432/439SCSF-1R cells) (mouse); experiment: CSF-1 binding to cells carrying the receptor, summed up in the Discussion of Example 2
[3] = target: T2, wild-type mouse CSF-1R expressed on M-/- macrophages (M-/-.WTCSF-1R cells) (mouse) (UniProt P09581); experiment: initial rate of CSF-1 binding to upregulated cells, FIG. 14
T2 sequence: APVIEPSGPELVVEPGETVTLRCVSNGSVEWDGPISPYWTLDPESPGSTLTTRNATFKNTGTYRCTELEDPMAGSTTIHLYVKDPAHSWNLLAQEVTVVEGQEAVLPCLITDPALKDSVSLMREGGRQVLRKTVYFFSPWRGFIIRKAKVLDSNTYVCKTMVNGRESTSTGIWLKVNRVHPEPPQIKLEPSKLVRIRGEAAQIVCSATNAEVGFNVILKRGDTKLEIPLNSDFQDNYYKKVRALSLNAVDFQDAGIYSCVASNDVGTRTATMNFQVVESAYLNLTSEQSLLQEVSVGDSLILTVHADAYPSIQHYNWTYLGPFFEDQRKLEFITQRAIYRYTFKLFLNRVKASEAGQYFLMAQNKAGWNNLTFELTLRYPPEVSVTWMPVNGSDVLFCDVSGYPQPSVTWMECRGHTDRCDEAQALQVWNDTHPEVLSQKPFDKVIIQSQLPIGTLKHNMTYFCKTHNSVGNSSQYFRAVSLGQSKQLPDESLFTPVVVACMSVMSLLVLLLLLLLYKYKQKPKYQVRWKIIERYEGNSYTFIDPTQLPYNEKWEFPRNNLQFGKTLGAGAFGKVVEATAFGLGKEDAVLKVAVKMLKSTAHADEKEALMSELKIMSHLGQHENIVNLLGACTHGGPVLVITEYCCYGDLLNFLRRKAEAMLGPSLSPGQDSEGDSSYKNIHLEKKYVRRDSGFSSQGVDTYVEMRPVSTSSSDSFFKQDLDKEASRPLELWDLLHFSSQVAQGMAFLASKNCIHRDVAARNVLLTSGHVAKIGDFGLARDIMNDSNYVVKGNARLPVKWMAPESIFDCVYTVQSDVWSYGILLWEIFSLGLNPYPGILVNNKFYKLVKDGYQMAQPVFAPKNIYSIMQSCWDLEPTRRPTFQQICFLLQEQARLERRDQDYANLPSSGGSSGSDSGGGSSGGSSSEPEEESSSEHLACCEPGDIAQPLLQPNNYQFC

[4] = target: T1, mouse CSF-1R C432S/C439S mutant expressed on M-/- macrophages (M-/-.C432/439SCSF-1R cells) (mouse); experiment: as above

Measured: binding

B1: purified human recombinant CSF-1 (ligand, UniProt P09603 36-253, looked up)
chain: SEYCSHMIGSGHLQSLQRLIDSQMETSCQITFEFVDQEQLKDPVCYLKKAFLLVQDIMEDTMRFRDNTPNAIAIVQLQELSLRLKSCFTKDYEEHDKACVRTFYETPLQLLEKVKNVFNETKNLLDKDWNIFSKNCNNSFAECSSQDVVTKPDCNCLYPKAIPSSDPASVSPHQPLAPSMAPVAGLTWEDSEGTEGSSLLPGEQPLHTVDPGSAKQRP
notes: also called human CSF-1; colony stimulating factor-1
binds: [1] | [2] | [3] | [4]
